Assay results as given in US20070148201A1.
These are yes or no findings as the source states them, for the method shown.

Target: transferrin
Assay: ELISA, transferrin coated on plate, anti-T7-HRP detection

Binder | binding
BBP mutein Fer-P4 (designed binder) DVYHDGACPEVKPVDNFDWSQYHGKWWEVAKYPSKGGEKGKCGWAEYTPEGKSVKVSRYDVILSSEPFMEGTAYPVGDSKIGKIYHSRTKKGETKKTVFNVLSTDNKNYIIGYSCGYCECRKGHADHVWVLSRSMVLTGEAKTAVENYLIGSPVVDSQKLVYSDFSEAACKVNN | no binding (tested: dilution series starting from 1000 nM)
BBP mutein Fer-N22 (designed binder) DVYHDGACPEVKPVDNFDWSQYHGKWWEVAKYPNGGESPGKCGWAEYTPEGKSVKVSNYHVIKKRERFIEGTAYPVGDSKIGKICHSLTWSGLTKENVFNVLSTDNKNYIIGYYCKYKERKKGHGDFVWVLSRSMVLTGEAKTAVENYLIGSPVVDSQKLVYSDFSEAACKVNN | no binding (tested: dilution series starting from 1000 nM)
BBP mutein Fer-O20 (designed binder) DVYHDGACPEVKPVDNFDWSQYHGKWWEVAKCPSGKGRAGKCGWAEFTPEGKSVKVSRYDVIPAPELFMEGTAYPVGDPKIGKIYHSRTNKGLTKKTVFNVLSTDNKNYIIGYSCKYGEDQKGHKDHVWVLSRSMVLTGEAKTAVENYLIGSPVVDSQKLVYSDFSEAACKVNN | no binding (tested: dilution series starting from 1000 nM)
BBP mutein Fer-N21 (designed binder) DVYHDGACPEVKPVDNFDWSQYHGKWWEVAKYPSNRGSKGKCGWAEYTPEGKSVKVSRYDVIPRLEAFMEGTAYPVGDSKIGKIYHSRTSKGKTKKTVFNVLSTDNKNYIIGYSCIYNERYKGHYDHVWVLSRSMVLTGEAKTAVENYLIGSPVVDSQKLVYSDFSEAACKVNN | no binding (tested: dilution series starting from 1000 nM)
BBP mutein Fer-I21 (designed binder) DVYHDGACPEVKPVDNFDWSQYHGKWWEVAKYPNQKEKWGKCGWAEYTPEGKSVKVSNYHVIKRPERFIEGTAYPVGDSKIGKIYHSLTRLGKTKENVFNVLSTDNKNYIIGYYCLYPEGWKGHKDFVWVLSRSMVLTGEAKTAVENYLIGSPVVDSQKLVYSDFSEAACKVNN | no binding (tested: dilution series starting from 1000 nM)

Target: transferrin
Assay: ELISA: transferrin coated on the plate as control, BBP mutein titrated 0-1000 nM, detected with anti-T7 antibody-HRP, fluorescence (Example 12)

Binder | binding
BBP mutein Fer-P4 (designed binder) DVYHDGACPEVKPVDNFDWSQYHGKWWEVAKYPSKGGEKGKCGWAEYTPEGKSVKVSRYDVILSSEPFMEGTAYPVGDSKIGKIYHSRTKKGETKKTVFNVLSTDNKNYIIGYSCGYCECRKGHADHVWVLSRSMVLTGEAKTAVENYLIGSPVVDSQKLVYSDFSEAACKVNN | no binding (tested: 1000 nM)
